Measured values from the supplement of paper PMC4604168 (melanoma cell lines).
The list shows a part of the results. Single values are uncertain, as repeats are few or missing.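 Cells were imaged in 1,536-well plates, and nuclei stained with an antibody against cleaved PARP were counted against all DNA-stained nuclei to give the apoptosis fraction. Screening doses were chosen to leave most cells alive, and resting and induced cleaved-PARP levels differ strongly between cell lines.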

tested on: COLO829; assay: cleaved PARP positive nuclei fraction relative to DMSO control; melanoma cells; higher = more apoptosis; details: library dose: low library concentration; 72 h

Going from `CS(=O)(=O)c1ccc(C(=O)Nc2ccc(Cl)c(-c3ccccn3)c2)c(Cl)c1` [vismodegib] + CCCCCCCCc1ccc(CCC(N)(CO)CO)cc1 [fingolimod] (first compound 1 µM, partner dose 2 µM) to `C[C@@H](N)c1ccc(C(=O)Nc2ccnc3[nH]ccc23)cc1` + Nc1ncn([C@H]2C[C@H](O)[C@@H](CO)O2)c(=O)n1 [decitabine] (first compound 0.4 µM, partner dose 0.1 µM), the “cleaved PARP positive nuclei fraction” value rises from 90.6% to 198%.

First: C[C@]1(O)C[C@@H](c2nc(-c3ccc4ccc(-c5ccccc5)nc4c3)c3c(N)nccn32)C1 + CS(=O)(=O)c1ccc(C(=O)Nc2ccc(Cl)c(-c3ccccn3)c2)c(Cl)c1 [vismodegib] (first compound 0.4 µM, partner dose 1 µM)
Second: NC1(c2ccc(-c3nc4ccn5c(=O)[nH]nc5c4cc3-c3ccccc3)cc2)CCC1 + Clc1ccc(Nc2nnc(Cc3ccncc3)c3ccccc23)cc1 [vatalanib] (first compound 0.4 µM, partner dose 2 µM)
The “cleaved PARP positive nuclei fraction” value of the first is higher: 163% for the first, 150% for the second.

Going from `C[C@@H](N)c1ccc(C(=O)Nc2ccnc3[nH]ccc23)cc1` + CCCS(=O)(=O)Nc1ccc(F)c(C(=O)c2c[nH]c3ncc(Cl)cc23)c1F [PLX4720] (first compound 0.4 µM, partner dose 0.08 µM) to `C[C@]1(O)C[C@@H](c2nc(-c3ccc4ccc(-c5ccccc5)nc4c3)c3c(N)nccn32)C1` + Cn1c(=O)n(-c2ccc(C(C)(C)C#N)cc2)c2c3cc(-c4cnc5ccccc5c4)ccc3ncc21 [NVP-BEZ235] (first compound 0.4 µM, partner dose 0.004 µM), the “cleaved PARP positive nuclei fraction” value rises from 111% to 189%.

First: CN(c1ncccc1CNc1nc(Nc2ccc3c(c2)CC(=O)N3)ncc1C(F)(F)F)S(C)(=O)=O + O=C(O)c1ccc2c(c1)nc(Nc1cccc(Cl)c1)c1ccncc12 [CX4945] (first compound 0.08 µM, partner dose 0.4 µM)
Second: Cn1cnc2c(F)c(Nc3ccc(Br)cc3Cl)c(C(=O)NOCCO)cc21 [selumetinib] + Nc1ccn([C@@H]2O[C@H](CO)[C@@H](O)C2(F)F)c(=O)n1 [gemcitabine] (first compound 0.015 µM, partner dose 0.0004 µM)
The “cleaved PARP positive nuclei fraction” value of the first is higher: 91.9% for the first, 84.9% for the second.

Compared with `NC(=O)c1ccc(N(C(N)=O)c2c(F)cccc2F)nc1-c1ccc(F)cc1F` + C=CCNC1=C2C[C@@H](C)C[C@H](OC)[C@H](O)[C@@H](C)/C=C(\C)[C@H](OC(N)=O)[C@@H](OC)/C=C\C=C(/C)C(=O)NC(=CC1=O)C2=O [Tanespimycin] (first compound 0.4 µM, partner dose 0.002 µM), `C[C@@H](N)c1ccc(C(=O)Nc2ccnc3[nH]ccc23)cc1` + Cn1c(=O)n(-c2ccc(C(C)(C)C#N)cc2)c2c3cc(-c4cnc5ccccc5c4)ccc3ncc21 [NVP-BEZ235] (first compound 0.4 µM, partner dose 0.004 µM) is higher in “cleaved PARP positive nuclei fraction” value: 78.6% for the first, 118% for the second.

Compared with `Cn1cnc2c(F)c(Nc3ccc(Br)cc3Cl)c(C(=O)NOCCO)cc21` [selumetinib] + Cn1c(Nc2ccc(C(F)(F)F)cc2)nc2cc(Oc3ccnc(-c4ncc(C(F)(F)F)[nH]4)c3)ccc21 [CHIR265] (first compound 0.015 µM, partner dose 0.08 µM), `NC(=O)c1ccc(N(C(N)=O)c2c(F)cccc2F)nc1-c1ccc(F)cc1F` + CC(=O)c1c(C)c2cnc(Nc3ccc(N4CCNCC4)cn3)nc2n(C2CCCC2)c1=O [palbociclib] (first compound 0.4 µM, partner dose 0.04 µM) is lower in “cleaved PARP positive nuclei fraction” value: 178% for the first, 68.3% for the second.

Compared with `CCCCCCCCc1ccc(CCC(N)(CO)CO)cc1` [fingolimod] + OCc1c[nH]c2ccccc12 [Indole-3-carbinol] (first compound 2 µM, partner dose 0.8 µM), `Cn1sc(=O)n(Cc2ccccc2)c1=O` + Clc1ccc(Nc2nnc(Cc3ccncc3)c3ccccc23)cc1 [vatalanib] (first compound 0.4 µM, partner dose 2 µM) is lower in “cleaved PARP positive nuclei fraction” value: 110% for the first, 100% for the second.

Compared with `CC1(C)CCC(c2ccc(Cl)cc2)=C(CN2CCN(c3ccc(C(=O)NS(=O)(=O)c4ccc(N[C@H](CCN5CCOCC5)CSc5ccccc5)c(S(=O)(=O)C(F)(F)F)c4)cc3)CC2)C1` + CNC(=O)c1cc(Oc2ccc(NC(=O)Nc3ccc(Cl)c(C(F)(F)F)c3)cc2)ccn1 [sorafenib] (first compound 0.4 µM, partner dose 0.4 µM), `NC(=O)c1ccc(N(C(N)=O)c2c(F)cccc2F)nc1-c1ccc(F)cc1F` + COc1ccc(C2=N[C@@H](c3ccc(Cl)cc3)[C@@H](c3ccc(Cl)cc3)N2C(=O)N2CCNC(=O)C2)c(OC(C)C)c1 [Nutlin-3] (first compound 0.4 µM, partner dose 0.1 µM) is higher in “cleaved PARP positive nuclei fraction” value: 71.9% for the first, 83.6% for the second.

In the case of `CC1(C)CCC(c2ccc(Cl)cc2)=C(CN2CCN(c3ccc(C(=O)NS(=O)(=O)c4ccc(N[C@H](CCN5CCOCC5)CSc5ccccc5)c(S(=O)(=O)C(F)(F)F)c4)cc3)CC2)C1` + Nc1ncn([C@H]2C[C@H](O)[C@@H](CO)O2)c(=O)n1 [decitabine] (first compound 0.4 µM, partner dose 0.1 µM), the “cleaved PARP positive nuclei fraction” value is reported as 107%.
